Test results: PubChem BioAssay AID1508600 (Functional Genomics Laboratory (NCATS/FGL), 2020)
The whole screen tested about 53,000 sequences, of which about 3,700 (7%) were called active.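 How the source made its calls: active means gene knockdowns whose robust z-score for IL-1 alpha signal is at least 2 or at most -2, so actives lie on both sides; inactive means the rest.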 This is one part of the list.

Assay: Components of the Cytosolic LPS Sensing Pathway: Gene Identification via Genome-wide siRNA Screen;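 further: robust z of the log signal after scaling to non-targeting control siRNA wells of the plate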
Details: RAW264.7 macrophages, IL-1a HTRF, actives lie on both sides, screened at 100 nM (by protocol), cells primed 5 h with Pam3CSK4 first
How it was run: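 Supernatant IL-1a by HTRF from RAW264.7 cells primed with Pam3CSK4 (5 hours) and transfected with LipidA (24 hour) after 48h siRNA knockdown at 100 nM; cell viability checked with CellTiter-Glo.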

Sequence | z-score
GGAGAGAAGAGCAGAAAGATT against Nosip | inactive: -0.799
GGCCAUAUCAUUCUUCAUUTT against Tbx18 | inactive: 0.177
GGGUAAGUAUUGAACUCAUTT against Slc10a1 | inactive: 1.06
GCUGCCUCUCACCAAGUAUTT against Creb3l3 | inactive: -1.43
GGCUCUGGCAGAAAUGGAUTT against Pex26 | inactive: -0.0204
GGAAGAAGAAAGUGUUAAATT against Ythdf2 | inactive: -0.337
GGAGGUGUUCAAAGACAACTT against Traf5 | inactive: 0.553
GGAUGAUCAAGCAGAGUUUTT against Dctn2 | inactive: 0.405
GGACGCAAGUACAAAUUUATT against Tnxb | inactive: 1.13
CGUACUAUAUCAAAGAACATT against Ro60 | inactive: 0.889
GCACUUUAAGAUCAACCGGTT against Bcar3 | inactive: 0.521
GGAUGCUGAUGGAUUCUCUTT against Caskin2 | inactive: -0.73
GCAUUCAGGACCUGUGGCUTT against Olfr890 | active: -2.33
GGGAAUCUAUUGAUGGGAUTT against Sardh | inactive: -0.635
CCUCUCACCUCAAACGGAUTT against Btnl2 | inactive: 0.89
GGAACAGGUUCAUUCAUUGTT against Nup160 | inactive: -0.99
GGUGGUUGUCAUGACAGUCTT against Tcerg1l | inactive: -1.69
GGAUUUCCAGGUUAUUUUCTT against Csn2 | inactive: -0.423
GGCUUAUGAGAACUUGGUGTT against Amot | inactive: -0.896
GGAGGACUAUAACUAAGAGTT against Ifitm5 | inactive: 0.342
GGAAAUAAAGUGAAUGAGGTT against Gtpbp4 | inactive: -1.22
GCCCACGUCCUGGUUUAAUTT against 4632404H12Rik | inactive: 0.482

Sequence | z-score
GCAAAGUCUAAACUUAGUCTT against Fchsd2 | inactive: 0.441
GCGCAAAUCUCUCUGUUCUTT against Krt35 | inactive: 1.23
GGCCUCAGAAAAGGAUCGATT against Olfr1500 | inactive: 0.163
GGUGGAAAGAUUAUCUUCATT against Dmc1 | inactive: -0.63
GGAGGAGUGAGUCCUGAGATT against Ifna13 | inactive: -0.0708
CCUAGUGGCUAUACAAAUATT against Rgn | inactive: 0.234
GGUUCAGAAUUUAACCUUATT against Phc3 | active: 3
GGAAAGAAACUUUACUGAGTT against Olfr1437 | inactive: 0.0613
GGUCUCACUGCUAAUAAAGTT against Cutal | inactive: 0.637
CCUUAGCUAGAGAAAGUUATT against Gtpbp10 | inactive: -1.06
GGAAUGUGAGCUCAGAUGGTT against Arvcf | inactive: -0.262
GCUGAUAACCUGAUCAACGTT against Nars | inactive: 0.0406
GCUGAGGUAUUCAUUAUAGTT against Prss45 | inactive: 1.01
GGCACCAAGCUCGAUGAUGTT against Sh3gl2 | inactive: -1.41
GGAGAAACUUUUGUCUUCCTT against Slc44a4 | inactive: -1.04
GGCUUUCUUUGACUGUCUCTT against Rdh16 | inactive: -1.17
GCCCGAGACCAUGGUUUGUTT against Zfyve21 | inactive: 1.68
GGCCUACCAUUUCUUUAUATT against Wdr35 | inactive: 0.773
GGGAUGUGAGGGAAUUAACTT against B4galt3 | inactive: -1.03
GGCUACGUGUCAAUAGACATT against Cyth2 | inactive: -1.52
GGUACAUCAGCAACUUCGATT against Dus1l | inactive: -0.482
GGAUACAGGAGGAAGAAAATT against Alpk3 | inactive: -0.371

Sequence | z-score
GGUGCCAACAAUACUAAACTT against Mycbp2 | inactive: 1.9
UGAUAUCGGAACAGAGAUGTT against Tbx15 | inactive: -0.467
GGUCCCAGCAUGUUUACGUTT against Slc2a12 | active: 3.04
GGUAAAGCCUUUCAGGAAGTT against Tmem80 | inactive: -0.946
GGGUGAAGGUGAAUAUUUATT against Esm1 | inactive: -1.12
GCUAGGUACUGGGUUUUGCTT against Adora2b | inactive: 1.38
GGUGAAGUUAAAAUGAACUTT against Cul2 | inactive: 1.33
GGCGAUCCACAGGAACUCUTT against Tiam1 | inactive: -1.23
GGAUUUAGCUAAGAGAGGGTT against Zmat3 | inactive: -0.125
GGUCUAUCCUACAGCUGAGTT against Prl8a9 | inactive: 0.785
GGCGACGAGUUUGAUGACUTT against Eid1 | inactive: -1.98
GGAGACCUGAAUUUUUCAGTT against Tab2 | inactive: 0.469
GGAUUAAAUGGUGGUGGAGTT against Dnajb6 | inactive: -1.1
GGAGCGAUACCACAGUUUATT against Rab5b | inactive: 0.4
GGAAGAGAAUAACUCAUCATT against Dmac2l | inactive: 0.0977
GAUGAGAGACAAAUUCCCATT against Il11 | inactive: -0.628
GCCCUGAGGAAGGUACUAATT against Olfr479 | inactive: -0.369
GGCCAAGAAGACAAGAAAATT against Ddx54 | inactive: 0.502
GGAUCUGCCUGAUCAAAAGTT against Ivl | inactive: -0.497
GGGUCAUGAAGUGAUGGUUTT against Ugt2b34 | inactive: -0.394
GGAAAGCUGGUGAUGCUCGTT against Rasal3 | inactive: -0.133
GCCUAUAACUUCAAGUAUCTT against Gpn1 | inactive: -1.06

24 entries from above, reformatted:

| Sequence | z-score |
| --- | --- |
| GGUACAUCAGCAACUUCGATT against Dus1l | inactive: -0.482 |
| GGAUACAGGAGGAAGAAAATT against Alpk3 | inactive: -0.371 |
| GGUGCCAACAAUACUAAACTT against Mycbp2 | inactive: 1.9 |
| UGAUAUCGGAACAGAGAUGTT against Tbx15 | inactive: -0.467 |
| GGUCCCAGCAUGUUUACGUTT against Slc2a12 | active: 3.04 |
| GGUAAAGCCUUUCAGGAAGTT against Tmem80 | inactive: -0.946 |
| GGGUGAAGGUGAAUAUUUATT against Esm1 | inactive: -1.12 |
| GCUAGGUACUGGGUUUUGCTT against Adora2b | inactive: 1.38 |
| GGUGAAGUUAAAAUGAACUTT against Cul2 | inactive: 1.33 |
| GGCGAUCCACAGGAACUCUTT against Tiam1 | inactive: -1.23 |
| GGAUUUAGCUAAGAGAGGGTT against Zmat3 | inactive: -0.125 |
| GGUCUAUCCUACAGCUGAGTT against Prl8a9 | inactive: 0.785 |
| GGCGACGAGUUUGAUGACUTT against Eid1 | inactive: -1.98 |
| GGAGACCUGAAUUUUUCAGTT against Tab2 | inactive: 0.469 |
| GGAUUAAAUGGUGGUGGAGTT against Dnajb6 | inactive: -1.1 |
| GGAGCGAUACCACAGUUUATT against Rab5b | inactive: 0.4 |
| GGAAGAGAAUAACUCAUCATT against Dmac2l | inactive: 0.0977 |
| GAUGAGAGACAAAUUCCCATT against Il11 | inactive: -0.628 |
| GCCCUGAGGAAGGUACUAATT against Olfr479 | inactive: -0.369 |
| GGCCAAGAAGACAAGAAAATT against Ddx54 | inactive: 0.502 |
| GGAUCUGCCUGAUCAAAAGTT against Ivl | inactive: -0.497 |
| GGGUCAUGAAGUGAUGGUUTT against Ugt2b34 | inactive: -0.394 |
| GGAAAGCUGGUGAUGCUCGTT against Rasal3 | inactive: -0.133 |
| GCCUAUAACUUCAAGUAUCTT against Gpn1 | inactive: -1.06 |

Additional entries follow.

Sequence | z-score
GGAUUACAGGCAUUUGGUUTT against Hmgn1 | active: 3.01
GGUCCCAAGUCCCUAAGAUTT against Ankrd33 | inactive: 0.711
GGUGGGCCUUUGUCUCAACTT against Ttll3 | inactive: -0.197
GGAUUUCCUAGUAUCUAUGTT against Sptb | inactive: 0.564
GGAGAUCGACGAAUACAUCTT against Reep2 | inactive: 0.446
GGUUUUCUGGAAGUACUUGTT against Spag17 | inactive: 0.142
GCAUCAAACCUGGUUCGAATT against Mast2 | inactive: -0.306
CCUGAAUUCUACAAGGUUATT against Plg | inactive: 1.1
GGUAGCUGUGAAGAUCAUCTT against Mark2 | inactive: -0.447
GCACCAGUCGAAUCCUCAATT against Gpr137 | inactive: -1.46
CCAACUACAAGACCAUCGGTT against Akp3 | inactive: -0.22
GGCAAACCAGUGUUCCCUATT against Tmem176b | inactive: -0.873
GGACAUAAUUCUUUCCGUGTT against Trmt11 | inactive: 0.412
GCCUUCUAAGUCUGCACCATT against H2bc3 | inactive: -0.578
GCACCUCGGUCAUUUAUAUTT against Mettl14 | active: -2.51
GGACCUAUCAACUGAGUUUTT against Hrc | inactive: 1.06
GGAUGAGCAAGAAAUCCCUTT against Ccdc137 | inactive: -0.873
GGAAGGAGUAUGAAAAGAATT against Scgb3a2 | inactive: -1.19
GGUACUUUGGAAAGAAGAGTT against Yeats4 | inactive: -1.27
GCUACGGCCAGACGAACUUTT against A430005L14Rik | inactive: 1.32
CGGUAUGAGUAGGAUCUCCTT against Cd83 | inactive: -0.577
GGAAAUACCCUGAUAGCCATT against Etl4 | inactive: 0.215

Sequence | z-score
GCACUUACUCCUUAACUCUTT against Cdk2ap2 | inactive: -0.46
GGGCUGGAAUAAACUUGUCTT against Usp15 | inactive: -1.2
GGAGAUUGGCAUAGAGAAGTT against Myo5b | inactive: 0.437
GGAAACAACUGAUGACUUATT against Slc7a8 | inactive: 0.408
GGCUGUGCUUUACAACUUUTT against Olfr982 | inactive: 0.289
GCUCCUUUAUAUUCAACUGTT against Ddx11 | inactive: 1.4
GGCUUUUAGACAUUUAUCUTT against Pdlim3 | inactive: -0.681
GCUUCCAAGACCCUAAAGCTT against Usp17lb | inactive: 0.215
GCUAAUUCAUGAAUUGAUGTT against Ofd1 | inactive: 1.01
AGGAAAGCUUUCUUCACCUTT against Olfr206 | inactive: -0.408
GGGCAGAAGCUGUGAAAUCTT against Map11 | inactive: -1.08
GGCCUGUUUUGUGAACUGCTT against Timm8a1 | inactive: -0.795
GCUACAUUCAGGAACCACATT against Usp48 | inactive: 0.484
CCCUAUCAUCGAUGGUCGCTT against Rbm38 | inactive: 0.291
CCCUAAGACUAUGGAGGCCTT against Spdye4a | inactive: 0.0656
GCGGUAGUUUCACACUUAUTT against Onecut1 | inactive: 0.987
GCUAUCGUUCGUCCAGCAUTT against Atf2 | inactive: -1.17
CCAUUUGAUCAAGCUUUAGTT against Spock3 | inactive: 0.0957
GGAAACAUCAGUGAGUCCGTT against Igfbp3 | inactive: 0.447
